This assay concerns the target CDK9 (human (endogenous in J-Lat A2 and HeLa)) (UniProt P50750). As to the kind of experiment: co-IP.

Amino acid sequences for entries named in this document (tags omitted).
UniProt P50750: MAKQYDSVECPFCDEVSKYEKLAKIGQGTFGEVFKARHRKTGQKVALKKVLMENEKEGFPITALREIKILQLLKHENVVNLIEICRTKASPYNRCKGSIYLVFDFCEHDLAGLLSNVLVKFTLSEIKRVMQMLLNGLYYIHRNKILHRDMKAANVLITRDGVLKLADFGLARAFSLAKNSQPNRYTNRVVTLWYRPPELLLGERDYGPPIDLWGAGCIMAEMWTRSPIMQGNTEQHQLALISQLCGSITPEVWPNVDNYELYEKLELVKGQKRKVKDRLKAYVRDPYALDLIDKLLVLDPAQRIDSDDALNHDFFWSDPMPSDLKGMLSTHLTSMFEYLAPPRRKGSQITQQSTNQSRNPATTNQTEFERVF
UniProt O94992: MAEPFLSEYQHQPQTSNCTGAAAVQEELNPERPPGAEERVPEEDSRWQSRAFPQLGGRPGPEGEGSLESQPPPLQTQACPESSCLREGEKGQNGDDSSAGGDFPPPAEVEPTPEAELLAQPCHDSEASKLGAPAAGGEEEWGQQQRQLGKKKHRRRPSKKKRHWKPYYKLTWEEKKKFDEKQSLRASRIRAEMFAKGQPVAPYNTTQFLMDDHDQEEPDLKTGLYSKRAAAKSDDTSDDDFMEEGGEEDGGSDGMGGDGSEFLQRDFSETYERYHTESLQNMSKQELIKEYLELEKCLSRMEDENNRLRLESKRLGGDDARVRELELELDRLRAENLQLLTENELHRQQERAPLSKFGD

Results are given in words; binding and its absence hold for the method and conditions named. In cells and extracts the contact can be indirect. Some results given as binding are weak or reduced against the parent protein; the word gives no strength.

Data on 2 molecules can be found in paper PMC4646521.

For the molecule HEXIM1 (from UniProt O94992 1-359), the binding result was “binds”.

B1: LARP7 (protein, UniProt Q4G0J3 1-582)
chain: METESGNQEKVMEEESTEKKKEVEKKKRSRVKQVLADIAKQVDFWFGDANLHKDRFLREQIEKSRDGYVDISLLVSFNKMKKLTTDGKLIARALRSSAVVELDLEGTRIRRKKPLGERPKDEDERTVYVELLPKNVNHSWIERVFGKCGNVVYISIPHYKSTGDPKGFAFVEFETKEQAAKAIEFLNNPPEEAPRKPGIFPKTVKNKPIPALRVVEEKKKKKKKKGRMKKEDNIQAKEENMDTSNTSISKMKRSRPTSEGSDIESTEPQKQCSKKKKKRDRVEASSLPEVRTGKRKRSSSEDAESLAPRSKVKKIIQKDIIKEASEASKENRDIEISTEEEKDTGDLKDSSLLKTKRKHKKKHKERHKMGEEVIPLRVLSKSEWMDLKKEYLALQKASMASLKKTISQIKSESEMETDSGVPQNTGMKNEKTANREECRTQEKVNATGPQFVSGVIVKIISTEPLPGRKQVRDTLAAISEVLYVDLLEGDTECHARFKTPEDAQAVINAYTEINKKHCWKLEILSGDHEQRYWQKILVDRQAKLNQPREKKRGTEKLITKAEKIRLAKTQQASKHIRFSEYD
B1: the binding result is given as “binds”.
